{"source": "patent EP2144607B1", "about": "“COMPOSITIONS FOR CONTRIBUTING TO THE TREATMENT OF CANCERS” (Spectrum Pharmaceuticals, Inc., priority 2007, dated 2014)", "key": {"SK-OV3 cells": {"test_system": "SK-OV3 cells", "assay": "preclinical efficacy study on the human ovarian tumor model in mice (tumor volume)", "format": "in vivo", "conditions": "IRL-1620 3 nmol/kg alone, via tail vein every third day, 4 doses; compared to controls (saline)"}, "ETB receptors": {"test_system": "ETB receptors", "conditions": "cited from earlier work"}}, "note": "Part of at least one peptide drawing is inferred or uncertain, most often the ends. Numbered stars: 1 amine (or outer) side, 2 acyl side, 3 side chain; on linkers, the order of the positions; unused ones are H or OH. Peptide text beside a SMILES is read from it. Suc = O=C(CCC(=O)[*:2])[*:1]"}
{"smiles": "CC[C@H](C)[C@H](NC(=O)[C@H](CC(=O)O)NC(=O)[C@H](CC(C)C)NC(=O)[C@H](Cc1c[nH]cn1)NC(=O)[C@H](C)NC(=O)[C@H](Cc1ccccc1)NC(=O)[C@H](Cc1ccc(O)cc1)NC(=O)[C@@H](NC(=O)[C@H](C)NC(=O)[C@H](CCC(=O)O)NC(=O)[C@H](CCC(=O)O)NC(=O)[C@H](CC(=O)O)NC(=O)CCC(=O)O)C(C)C)C(=O)N[C@H](C(=O)N[C@@H](Cc1c[nH]c2ccccc12)C(=O)O)[C@@H](C)CC", "note": "[IRL-1620, N-suc-[Glu^9, Ala^11,15]ET-1 (8-21)] (Suc-DEEAVYFAHLDIIW-OH)", "values": [{"measurement": "tumor volume", "setting": "SK-OV3 cells", "result": "did not significantly affect tumor volume"}, {"measurement": "selectivity for the ETB receptors", "setting": "ETB receptors", "result": "120,000 fold"}]}
